Publication PMC6636018
Results are given in words; binding and its absence hold for the method and conditions named. Binding seen in cells or lysates may run through a third protein. Some results given as binding are weak or reduced against the parent protein; the word gives no strength. Tags and fused reporters may be left off the sequences shown.

Protein sequences, listed by entry. Tags and fused reporters are not part of them.
UniProt Q00987: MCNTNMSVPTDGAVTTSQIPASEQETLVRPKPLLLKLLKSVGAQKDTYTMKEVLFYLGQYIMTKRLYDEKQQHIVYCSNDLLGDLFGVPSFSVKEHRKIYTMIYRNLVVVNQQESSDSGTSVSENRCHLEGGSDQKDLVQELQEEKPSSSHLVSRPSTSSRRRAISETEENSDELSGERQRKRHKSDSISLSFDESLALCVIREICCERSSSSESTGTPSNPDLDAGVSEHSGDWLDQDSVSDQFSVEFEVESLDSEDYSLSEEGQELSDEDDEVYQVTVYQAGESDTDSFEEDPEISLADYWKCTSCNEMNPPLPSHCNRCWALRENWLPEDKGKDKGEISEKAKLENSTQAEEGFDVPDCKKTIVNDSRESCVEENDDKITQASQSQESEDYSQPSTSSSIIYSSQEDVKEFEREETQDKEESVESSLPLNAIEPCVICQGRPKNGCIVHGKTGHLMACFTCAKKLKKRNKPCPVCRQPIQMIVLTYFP

Molecular target: T1, Flag-PHLDB2 (UniProt Q86SQ0)
T1 sequence: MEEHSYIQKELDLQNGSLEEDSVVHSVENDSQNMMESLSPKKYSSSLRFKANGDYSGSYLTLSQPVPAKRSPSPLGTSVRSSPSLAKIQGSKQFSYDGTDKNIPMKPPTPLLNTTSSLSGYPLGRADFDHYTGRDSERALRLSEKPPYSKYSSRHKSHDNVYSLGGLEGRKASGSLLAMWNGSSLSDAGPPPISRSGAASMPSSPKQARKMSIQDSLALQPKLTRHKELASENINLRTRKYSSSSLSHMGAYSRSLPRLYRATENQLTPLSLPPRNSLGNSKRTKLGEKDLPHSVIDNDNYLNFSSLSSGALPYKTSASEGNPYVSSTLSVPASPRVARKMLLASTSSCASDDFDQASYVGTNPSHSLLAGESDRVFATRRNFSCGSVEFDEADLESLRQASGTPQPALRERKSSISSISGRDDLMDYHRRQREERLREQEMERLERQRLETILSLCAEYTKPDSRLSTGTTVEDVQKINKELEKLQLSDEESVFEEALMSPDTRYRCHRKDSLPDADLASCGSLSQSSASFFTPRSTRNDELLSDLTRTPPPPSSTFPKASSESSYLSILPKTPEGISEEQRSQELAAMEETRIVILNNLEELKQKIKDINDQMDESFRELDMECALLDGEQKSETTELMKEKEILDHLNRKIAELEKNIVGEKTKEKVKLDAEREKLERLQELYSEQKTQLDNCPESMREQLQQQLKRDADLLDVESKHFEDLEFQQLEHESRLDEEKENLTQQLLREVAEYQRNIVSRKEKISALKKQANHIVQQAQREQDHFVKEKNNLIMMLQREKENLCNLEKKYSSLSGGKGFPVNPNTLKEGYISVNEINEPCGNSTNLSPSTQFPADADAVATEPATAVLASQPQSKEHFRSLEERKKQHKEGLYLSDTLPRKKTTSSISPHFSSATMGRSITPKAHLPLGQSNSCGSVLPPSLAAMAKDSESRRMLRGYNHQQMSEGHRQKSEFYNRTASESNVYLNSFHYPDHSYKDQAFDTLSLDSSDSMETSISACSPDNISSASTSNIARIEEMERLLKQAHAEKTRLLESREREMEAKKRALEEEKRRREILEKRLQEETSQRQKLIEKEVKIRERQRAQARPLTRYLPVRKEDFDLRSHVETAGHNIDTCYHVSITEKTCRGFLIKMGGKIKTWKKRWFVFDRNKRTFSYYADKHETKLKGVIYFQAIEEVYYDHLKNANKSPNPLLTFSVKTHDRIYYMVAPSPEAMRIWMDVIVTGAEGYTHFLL
Test: co-IP; HCT116 p53-/- cells transfected with HA-MDM2 with or without Flag-PHLDB2; lysate harvested 48 h post-transfection; precipitated with anti-Flag antibody, Western blot

- binding: binds
Substance: HA-MDM2 (from UniProt Q00987 1-491)
